In article doi:10.1101/2021.08.02.454780:
These are yes or no findings as the source states them, for the method shown. In cells and extracts the contact can be indirect. Here binding means that the protein was enriched with, or labelled near, the bait; the list need not be complete. Where a sequence is shown, tags or fusion partners need not be part of it.

Chains of the proteins cited; added tags and fusions are not shown. Residues count along the entry.
UniProt Q93ZX1: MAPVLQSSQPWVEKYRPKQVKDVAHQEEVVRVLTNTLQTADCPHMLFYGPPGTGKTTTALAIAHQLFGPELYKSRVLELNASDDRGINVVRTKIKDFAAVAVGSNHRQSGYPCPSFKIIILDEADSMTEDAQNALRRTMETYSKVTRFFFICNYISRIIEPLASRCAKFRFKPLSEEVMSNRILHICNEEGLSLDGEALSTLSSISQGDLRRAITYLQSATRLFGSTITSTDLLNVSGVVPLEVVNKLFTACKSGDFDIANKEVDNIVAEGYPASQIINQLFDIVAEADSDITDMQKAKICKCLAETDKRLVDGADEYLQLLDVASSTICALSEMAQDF
UniProt Q39043, residues 24-668: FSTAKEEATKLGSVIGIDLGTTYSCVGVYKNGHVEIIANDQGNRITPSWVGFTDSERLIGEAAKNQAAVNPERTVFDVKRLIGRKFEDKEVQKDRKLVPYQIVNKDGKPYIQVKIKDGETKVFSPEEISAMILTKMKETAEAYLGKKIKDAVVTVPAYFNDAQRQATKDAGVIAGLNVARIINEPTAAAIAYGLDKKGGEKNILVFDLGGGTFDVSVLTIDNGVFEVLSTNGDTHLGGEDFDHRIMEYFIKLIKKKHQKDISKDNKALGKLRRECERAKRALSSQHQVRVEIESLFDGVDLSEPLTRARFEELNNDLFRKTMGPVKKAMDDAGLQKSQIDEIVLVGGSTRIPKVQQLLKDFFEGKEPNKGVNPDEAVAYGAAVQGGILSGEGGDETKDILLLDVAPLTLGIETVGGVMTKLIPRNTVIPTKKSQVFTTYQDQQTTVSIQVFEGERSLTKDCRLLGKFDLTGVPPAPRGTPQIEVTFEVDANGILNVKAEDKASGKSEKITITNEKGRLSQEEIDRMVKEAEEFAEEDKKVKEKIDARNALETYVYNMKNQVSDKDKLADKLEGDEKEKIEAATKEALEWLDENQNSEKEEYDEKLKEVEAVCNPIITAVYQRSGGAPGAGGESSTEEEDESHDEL
UniProt Q94K07: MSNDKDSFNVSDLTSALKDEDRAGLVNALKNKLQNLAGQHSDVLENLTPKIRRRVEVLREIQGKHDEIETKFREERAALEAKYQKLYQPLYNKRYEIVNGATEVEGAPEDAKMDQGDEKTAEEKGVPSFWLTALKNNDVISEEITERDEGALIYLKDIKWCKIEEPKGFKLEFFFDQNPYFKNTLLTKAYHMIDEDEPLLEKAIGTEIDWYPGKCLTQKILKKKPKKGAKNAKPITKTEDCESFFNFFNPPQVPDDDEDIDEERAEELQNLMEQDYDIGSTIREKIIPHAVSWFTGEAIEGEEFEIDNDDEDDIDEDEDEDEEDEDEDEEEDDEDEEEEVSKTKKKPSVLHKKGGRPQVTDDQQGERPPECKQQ

T1: MED17 fused to GFP (Mediator subunit 17, Arabidopsis) (A. thaliana), F4K460
T1 chain: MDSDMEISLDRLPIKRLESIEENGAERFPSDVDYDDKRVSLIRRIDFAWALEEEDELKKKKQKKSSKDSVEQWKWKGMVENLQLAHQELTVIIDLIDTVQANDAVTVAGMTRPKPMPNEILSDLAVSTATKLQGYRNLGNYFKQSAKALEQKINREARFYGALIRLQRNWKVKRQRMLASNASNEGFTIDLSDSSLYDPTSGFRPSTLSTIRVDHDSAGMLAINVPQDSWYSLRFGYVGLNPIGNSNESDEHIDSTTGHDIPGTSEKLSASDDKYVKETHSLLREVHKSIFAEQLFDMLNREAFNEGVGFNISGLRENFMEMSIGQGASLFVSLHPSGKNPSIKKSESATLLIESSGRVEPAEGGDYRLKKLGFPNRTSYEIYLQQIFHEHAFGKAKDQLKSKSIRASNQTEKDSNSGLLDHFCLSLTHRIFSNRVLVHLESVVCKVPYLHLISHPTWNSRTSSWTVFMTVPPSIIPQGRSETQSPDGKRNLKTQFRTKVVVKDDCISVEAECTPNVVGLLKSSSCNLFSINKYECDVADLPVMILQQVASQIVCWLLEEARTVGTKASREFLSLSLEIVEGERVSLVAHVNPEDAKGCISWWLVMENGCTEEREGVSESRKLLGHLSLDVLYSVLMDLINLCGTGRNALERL

T2: MED17 fused to GFP (Mediator subunit 17, Arabidopsis) (A. thaliana) (UniProt F4K460)
T2 sequence: T1 chain

B1: MED8, Q4V3C1 1-524 (protein)
chain: METQPQQPPPPPVAEKLNPKLEKELNLESLKTRAVSLAKAIARILEDFDAYGRTNTTPKWQDILGQYSMVNLELFNIVEEVKRVSNAFVVLPKNVNAMNAAILPVMLSSKLLPEMETDDNAKREQLLQGVQSLPIPMQIERLKARMDMIAAACENAERVLADTRKAYGFGTRQGPSMLPTMDKGQAAKIQEQEKMLRDAVNDGKGTQLPPDQRQITTALPPHLADVLIINDAGKIALPGQSNNINNQGMMQVSGTQFVGRSAASPSGPNFDNTTSPLPYSNSPRATGMVNVPSPQHQIQQQQFQQQQQRSKLMQLPQHQQQQLLAQQQQQLRQSSMQGLGQSQIPALHDMHGQAQQKFQTSHGQHQMPYSQPMGAHQQFQARQLSGGHIQHSMSQGQLNPAMNRHLNQFSGGANSALFTSAQGSPSSQMIPNMSSMQSQTLVPRMQQFGVSGTNPQRSHSSQMLGDQMFNTSGMMQTQQTQIQQSQQQQQQQQQGGYGNMQTNQQSLQPNNMMQNAQQRHQNPQ
B2: cell division cycle 5-like protein (CDC5) (protein, UniProt P92948 1-844)
chain: MRIMIKGGVWKNTEDEILKAAVMKYGKNQWARISSLLVRKSAKQCKARWYEWLDPSIKKTEWTREEDEKLLHLAKLLPTQWRTIAPIVGRTPSQCLERYEKLLDAACTKDENYDAADDPRKLRPGEIDPNPEAKPARPDPVDMDEDEKEMLSEARARLANTRGKKAKRKAREKQLEEARRLASLQKRRELKAAGIDGRHRKRKRKGIDYNAEIPFEKRAPAGFYDTADEDRPADQVKFPTTIEELEGKRRADVEAHLRKQDVARNKIAQRQDAPAAILQANKLNDPEVVRKRSKLMLPPPQISDHELEEIAKMGYASDLLAENEELTEGSAATRALLANYSQTPRQGMTPMRTPQRTPAGKGDAIMMEAENLARLRDSQTPLLGGENPELHPSDFTGVTPRKKEIQTPNPMLTPSMTPGGAGLTPRIGLTPSRDGSSFSMTPKGTPFRDELHINEDMDMHESAKLERQRREEARRSLRSGLTGLPQPKNEYQIVAQPPPEESEEPEEKIEEDMSDRIAREKAEEEARQQALLKKRSKVLQRDLPRPPAASLAVIRNSLLSADGDKSSVVPPTPIEVADKMVREELLQLLEHDNAKYPLDDKAEKKKGAKNRTNRSASQVLAIDDFDENELQEADKMIKEEGKFLCVSMGHENKTLDDFVEAHNTCVNDLMYFPTRSAYELSSVAGNADKVAAFQEEMENVRKKMEEDEKKAEHMKAKYKTYTKGHERRAETVWTQIEATLKQAEIGGTEVECFKALKRQEEMAASFRKKNLQEEVIKQKETESKLQTRYGNMLAMVEKAEEIMVGFRAQALKKQEDVEDSHKLKEAKLATGEEEDIAIAMEASA
B3: histone chaperone NRP 1 (protein, UniProt Q9CA59 1-256)
chain: MVADKSKKSKIEEKGEEENLEQIDAELVLSIEKLQEIQDDLEKINEKASDEVLEVEQKYNVIRKPVYDKRNEVIQSIPGFWMTAFLSHPALGDLLTEEDQKIFKYLNSLEVEDAKDVKSGYSITFHFTSNPFFEDAKLTKTFTFLEEGTTKITATPIKWKEGKGLPNGVNHDDKKGNKRALPEESFFTWFTDAQHKEDAGDEIHDEVADIIKEDLWSNPLTYFNNDADEEDFDGDDDGDEEGEEDDDDEEEEDGEE
B4: sister chromatid cohesion 1 protein 4 (protein, UniProt Q8W1Y0 1-1031)
chain: MFYSQFILAKKGPLGTIWIAAHLERKLRKNQVADTDIGVSVDSILFPEAPIALRLSSHLLLGVVRIYSRKVNYLFDDCSEALLKVKQAFRSAAVDLPPEESTAPYHSITLPETFDLDDFELPDNEIFQGNYVDHHVSTKEQITLQDTMDGVVYSTSQFGLDERFGDGDTSQAALDLDEAVFQDKDVIGSDDEGVPGIDHNAYLDAAAPGIKDSMEGVSEAMPMDFNEEQVEDLAMNNEFIEDAQAPQTPGLVEVPNSSSVREQMACDDHMDVEDLNAEEGIKSSGELNANEMPKRGEDLSSEYNAPESAVTPVEVDKSQIDENVNTQNEPEEERAEHVHVTSPCCSHITTEMEDPGQVMNEAGANVVPDKPDAVPPLETPGEENRDHFAIATEVNQETDSSLQGDEQAYSRPDGQLNNAHETDEQLGNLTGFTDSDFPPPEKVLAVPNRQGDGNDFMVESTPDKEDPGTCNDDAGNNNITGKKRTFTESTLTAESLNSVESVGLIQSKRTADSVPDDDDLLSSILVGKSSFLKMRPTPVLEPATTKRLRSAPRSTATKRKVLMDDPMVLHGDIIRQQLTNTEDIRRVRKKAPCTVPEIVMLQRQALEDGLFKEPIFTGMSVELVSLHTEPYDLRGIMIIENDDRHASVGAVEDNECSVTAVEENKTEESSDPQAHPNDCEEQPGTAHTHPQEEQTINQQEELKDDNELAEKSDLEVLKEGNGAADEVNLVVIDDVSQIPSEEKLDRVEDLQVEESHENHDGEGGQDVCADPNEKSCTDVIEIAEGDTDINPIFNEMDLKVEDELPHEDEKTDASAEVSELGRDDQTPCDNTVGSTETGCLEAGDLSNMALENCNEPLVEANSDGLNPETESYNKYEPHNEMSNEEASMQNALDGEHTSRDGLMGDNDEMDTMENAHDTGFLNVDDDEVDEDHEEDDIQYDDETRLLENSGWSSRTRAVAKYLQTLFDKETENGKNVLVADKLLAGKTRKEASRMFFETLVLKTRDYIQVEQGKPYESIIIKPRPKLTKSIF
B5: transcription initiation factor TFIID subunit 9 (protein, UniProt Q9SYH2 1-183)
chain: MAGEGEEDVPRDAKIVKSLLKSMGVEDYEPRVIHQFLELWYRYVVEVLTDAQVYSEHASKPNIDCDDVKLAIQSKVNFSFSQPPPREVLLELAASRNKIPLPKSIAGPGVPLPPEQDTLLSPNYQLVIPKKSVSTEPEETEDDEEMTDPGQSSQEQQQQQQQTSDLPSQTPQRVSFPLSRRPK
B6: histone chaperone NRP 2 (protein, UniProt Q8LC68 1-255)
chain: MVTDKSKKAKTEEENVEQIDAELVLSIEKLQEIQDDLEKINEKASDEVLEVEQKYNVIRKPVYDKRNEIIKTIPDFWLTAFLSHPALGELLTEEDQKIFKYLSSLDVEDAKDVKSGYSITFSFNPNPFFEDGKLTKTFTFLEEGTTKITATPIKWKEGKGLANGVNHEKNGNKRALPEESFFTWFSDAQHKEDVEDEMQDEVADIIKEDLWPNPLTYFNNDADEEDFDGDDDGDEEEKEGDSDEDDDEEDEVGEE

Target: T1, MED17 fused to GFP (Mediator subunit …)
Assay: affinity purification with mass spectrometry
Settings: remark: other sources report otherwise

| binding | Molecule |
| --- | --- |
| binds | B1 |

target: T2, MED17 fused to GFP (Mediator subunit 17, Arabidopsis) (A. thaliana); assay: affinity purification with mass spectrometry; settings: not given

| binding | Molecule |
| --- | --- |
| binds | replication factor C subunit 4 (from UniProt Q93ZX1 1-339) |
| binds | DNA repair ATPase-related protein |
| binds | transcription initiation factor IIE subunit alpha |
| binds | MED37 F (from UniProt Q39043 24-668) |
| binds | MED37 A/B |
| binds | histone chaperone NAP 1; 3 (from UniProt Q94K07 1-374) |
| binds | B2 |
| binds | B3 |
| binds | B4 |
| binds | B5 |
| binds | B6 |
